{"source": "PubChem BioAssay AID1053208 | Peter MacCallum Cancer Centre | 2014", "test": "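Genes whose silencing cuts survival of bone tumour cells only with doxorubicin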 (primary screen)", "cell system": "mouse osteosarcoma cells, early-passage culture from an engineered mouse model of fibroblastic bone tumour", "knock-down reagent": "siRNA pool against mouse genes, 40 nM", "time to read-out": "about 120 h (48 h before drug, then 72 h with drug)", "challenge": "doxorubicin 100 nM for 72 h, roughly 30-40% inhibitory dose", "detection": "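Viability read as ATP luminescence after 72 h of 100 nM doxorubicin or none, duplicate wells averaged, scaled to non-targeting siRNA, then expressed as robust z-scores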", "reading the numbers": "viability z-score with doxorubicin: higher = more viable cells under doxorubicin; viability z-score without drug: higher = more viable cells with knock-down alone", "hit rule": "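Called active if knock-down leaves viability unchanged without drug (z within -2 to 2) but lowers it with doxorubicin (z at or under -2)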", "note": "In all, the deposit lists about 17,000 reagents; this is a random part of them. 788 of them (4.7%) were called active. 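Calls rest on z-score classes alone; an extra cut-off of viability at most 70% of control was not applied to them.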 Entries without a mark were called inactive. Not all columns of the deposit are shown."}
{"gene knocked down":"Slc68a1","PubChem SID":"SID152268724","combined z-score class":"high cell count without drug only","viability z-score with doxorubicin":-0.45,"viability z-score without drug":2.02}
{"gene knocked down":"Sgcg","PubChem SID":"SID152326077","combined z-score class":"no change with or without drug","viability z-score with doxorubicin":0,"viability z-score without drug":-0.17}
{"gene knocked down":"Nde1","PubChem SID":"SID152293211","combined z-score class":"no change with or without drug","viability z-score with doxorubicin":-0.11,"viability z-score without drug":-0.51}
{"gene knocked down":"Radil","PubChem SID":"SID152332344","combined z-score class":"no change with or without drug","viability z-score with doxorubicin":-1.35,"viability z-score without drug":-0.84}
{"gene knocked down":"Aig1","PubChem SID":"SID152310722","combined z-score class":"no change with or without drug","viability z-score with doxorubicin":-0.34,"viability z-score without drug":1.18}
{"gene knocked down":"Ifne","PubChem SID":"SID152283489","combined z-score class":"no change with or without drug","viability z-score with doxorubicin":-1.35,"viability z-score without drug":0.34}
{"gene knocked down":"Ppm1l","PubChem SID":"SID152305629","combined z-score class":"no change with or without drug","viability z-score with doxorubicin":0.79,"viability z-score without drug":-0.34}
{"gene knocked down":"Ddah2","PubChem SID":"SID152321212","combined z-score class":"no change with or without drug","viability z-score with doxorubicin":1.57,"viability z-score without drug":0.67}
{"gene knocked down":"Pop7","PubChem SID":"SID152313565","combined z-score class":"no change with or without drug","viability z-score with doxorubicin":0.9,"viability z-score without drug":0.84}
{"gene knocked down":"Zkscan14","PubChem SID":"SID152279885","combined z-score class":"high cell count without drug only","viability z-score with doxorubicin":1.69,"viability z-score without drug":2.02}
{"gene knocked down":"Ucp2","PubChem SID":"SID152306575","combined z-score class":"no change with or without drug","viability z-score with doxorubicin":1.57,"viability z-score without drug":0}
{"gene knocked down":"Cd200r1l","PubChem SID":"SID152293787","combined z-score class":"no change with or without drug","viability z-score with doxorubicin":0.67,"viability z-score without drug":-1.85}
{"gene knocked down":"Smpd4","PubChem SID":"SID152310510","combined z-score class":"no change with or without drug","viability z-score with doxorubicin":-1.12,"viability z-score without drug":-0.51}
{"gene knocked down":"Nek8","PubChem SID":"SID152272932","combined z-score class":"no change with or without drug","viability z-score with doxorubicin":1.24,"viability z-score without drug":1.18}
{"gene knocked down":"Enc1","PubChem SID":"SID152276733","combined z-score class":"no change with or without drug","viability z-score with doxorubicin":-0.34,"viability z-score without drug":-1.01}
{"gene knocked down":"Tex19.1","PubChem SID":"SID152342774","combined z-score class":"no change with or without drug","viability z-score with doxorubicin":0,"viability z-score without drug":0.84}
{"gene knocked down":"Fgl1","PubChem SID":"SID152296899","combined z-score class":"no change with or without drug","viability z-score with doxorubicin":-0.45,"viability z-score without drug":-0.17}
{"gene knocked down":"Olfml2a","PubChem SID":"SID152330079","combined z-score class":"low cell count without drug only","viability z-score with doxorubicin":-1.35,"viability z-score without drug":-2.02}

Laid out differently: 3 of the entries above.
gene knocked down	PubChem SID	combined z-score class	viability z-score with doxorubicin	viability z-score without drug
Ifne	SID152283489	no change with or without drug	-1.35	0.34
Ppm1l	SID152305629	no change with or without drug	0.79	-0.34
Ddah2	SID152321212	no change with or without drug	1.57	0.67

More records follow.
{"gene knocked down":"Dync1li2","PubChem SID":"SID152324166","combined z-score class":"no change with or without drug","viability z-score with doxorubicin":-1.8,"viability z-score without drug":-0.84}
{"gene knocked down":"Gna11","PubChem SID":"SID152259688","combined z-score class":"no change with or without drug","viability z-score with doxorubicin":0.45,"viability z-score without drug":-0.67}
{"gene knocked down":"Gosr2","PubChem SID":"SID152335945","combined z-score class":"no change with or without drug","viability z-score with doxorubicin":0.79,"viability z-score without drug":0.34}
{"gene knocked down":"Aldh6a1","PubChem SID":"SID152342608","combined z-score class":"no change with or without drug","viability z-score with doxorubicin":-0.67,"viability z-score without drug":0.17}
{"gene knocked down":"Lrrc7","PubChem SID":"SID152321642","combined z-score class":"no change with or without drug","viability z-score with doxorubicin":-0.34,"viability z-score without drug":0.51}
{"gene knocked down":"Il21","PubChem SID":"SID152330748","combined z-score class":"no change with or without drug","viability z-score with doxorubicin":0.56,"viability z-score without drug":-0.17}
{"gene knocked down":"Cfap57","PubChem SID":"SID152310076","combined z-score class":"high cell count without drug only","viability z-score with doxorubicin":0.9,"viability z-score without drug":2.02}
{"gene knocked down":"Pcdh12","PubChem SID":"SID152333196","combined z-score class":"no change with or without drug","viability z-score with doxorubicin":0.45,"viability z-score without drug":0.51}
{"gene knocked down":"Gtf2ird2","PubChem SID":"SID152289564","combined z-score class":"no change with or without drug","viability z-score with doxorubicin":0.22,"viability z-score without drug":0.67}
{"gene knocked down":"Acp2","PubChem SID":"SID152286487","combined z-score class":"no change with or without drug","viability z-score with doxorubicin":-0.11,"viability z-score without drug":-1.18}
